Experimental data published in PMC10798966.
No constants are given. Whether binding was seen depends on the method and setting. Binding seen in cells or lysates may run through a third protein. These calls come from enrichment with a bait or labelling near it, and not all partners need be listed. A no says only that the protein was not detected with the bait. For part of these data: Where a sequence is shown, tags or fusion partners need not be part of it.

Sequences of proteins named here, by UniProt entry; tags and fusion partners are left off. Residues count along the entry.
UniProt P29595, residues 1-76: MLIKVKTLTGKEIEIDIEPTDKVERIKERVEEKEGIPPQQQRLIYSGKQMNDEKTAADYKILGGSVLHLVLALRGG
UniProt Q9CQW9: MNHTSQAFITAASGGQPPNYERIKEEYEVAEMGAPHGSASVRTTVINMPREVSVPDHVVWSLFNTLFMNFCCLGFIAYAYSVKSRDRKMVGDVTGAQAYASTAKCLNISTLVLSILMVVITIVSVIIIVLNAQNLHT
UniProt P31041, residues 20-218: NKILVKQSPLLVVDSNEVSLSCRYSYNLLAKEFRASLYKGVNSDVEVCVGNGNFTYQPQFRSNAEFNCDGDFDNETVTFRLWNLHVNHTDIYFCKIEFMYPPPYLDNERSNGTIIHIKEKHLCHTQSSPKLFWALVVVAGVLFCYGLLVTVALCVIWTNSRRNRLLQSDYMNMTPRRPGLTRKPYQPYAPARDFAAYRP
UniProt Q8BHD8: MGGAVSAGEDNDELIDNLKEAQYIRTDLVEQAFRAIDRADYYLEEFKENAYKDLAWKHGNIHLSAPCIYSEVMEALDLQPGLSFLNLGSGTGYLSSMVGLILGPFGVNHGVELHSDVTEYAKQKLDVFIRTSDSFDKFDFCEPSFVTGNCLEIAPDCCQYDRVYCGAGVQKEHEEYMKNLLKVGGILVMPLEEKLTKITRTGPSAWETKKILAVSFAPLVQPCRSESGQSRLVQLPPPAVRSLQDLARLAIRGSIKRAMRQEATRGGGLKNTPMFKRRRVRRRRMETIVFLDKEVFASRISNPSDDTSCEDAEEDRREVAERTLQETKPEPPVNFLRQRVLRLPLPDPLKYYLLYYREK
UniProt P09793, residues 36-223: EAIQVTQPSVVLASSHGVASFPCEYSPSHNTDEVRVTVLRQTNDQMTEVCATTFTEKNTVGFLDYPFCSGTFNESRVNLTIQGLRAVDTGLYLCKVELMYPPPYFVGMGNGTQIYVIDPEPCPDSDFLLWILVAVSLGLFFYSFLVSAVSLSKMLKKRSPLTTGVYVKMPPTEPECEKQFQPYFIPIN

T1: CUL5 with a C terminal HA-tag (CUL5-HA) (mouse), Q9D5V5
T1 chain: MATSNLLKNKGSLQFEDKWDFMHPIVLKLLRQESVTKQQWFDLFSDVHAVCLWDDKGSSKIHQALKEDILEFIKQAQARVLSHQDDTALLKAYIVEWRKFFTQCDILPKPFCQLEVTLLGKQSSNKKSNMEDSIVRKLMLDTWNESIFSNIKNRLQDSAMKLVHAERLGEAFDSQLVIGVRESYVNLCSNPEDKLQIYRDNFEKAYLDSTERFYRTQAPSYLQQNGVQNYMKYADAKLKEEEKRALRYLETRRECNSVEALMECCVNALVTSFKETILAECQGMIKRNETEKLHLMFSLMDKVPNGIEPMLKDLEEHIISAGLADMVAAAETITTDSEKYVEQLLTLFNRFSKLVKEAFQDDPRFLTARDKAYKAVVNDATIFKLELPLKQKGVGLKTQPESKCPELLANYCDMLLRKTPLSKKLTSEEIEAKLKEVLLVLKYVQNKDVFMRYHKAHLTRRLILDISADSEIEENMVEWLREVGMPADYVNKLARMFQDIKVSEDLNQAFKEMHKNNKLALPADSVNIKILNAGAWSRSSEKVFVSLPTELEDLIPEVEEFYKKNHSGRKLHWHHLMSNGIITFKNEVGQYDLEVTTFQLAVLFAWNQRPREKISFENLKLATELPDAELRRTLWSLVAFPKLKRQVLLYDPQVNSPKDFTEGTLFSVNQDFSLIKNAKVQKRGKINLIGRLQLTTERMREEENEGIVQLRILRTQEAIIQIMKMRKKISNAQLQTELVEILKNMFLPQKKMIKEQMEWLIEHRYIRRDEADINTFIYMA

B1: IL2 receptor β subunit (IL2RB) (receptor, UniProt P16297 27-539)
chain: AVKNCSHLECFYNSRANVSCMWSHEEALNVTTCHVHAKSNLRHWNKTCELTLVRQASWACNLILGSFPESQSLTSVDLLDINVVCWEEKGWRRVKTCDFHPFDNLRLVAPHSLQVLHIDTQRCNISWKVSQVSHYIEPYLEFEARRRLLGHSWEDASVLSLKQRQQWLFLEMLIPSTSYEVQVRVKAQRNNTGTWSPWSQPLTFRTRPADPMKEILPMSWLRYLLLVLGCFSGFFSCVYILVKCRYLGPWLKTVLKCHIPDPSEFFSQLSSQHGGDLQKWLSSPVPLSFFSPSGPAPEISPLEVLDGDSKAVQLLLLQKDSAPLPSPSGHSQASCFTNQGYFFFHLPNALEIESCQVYFTYDPCVEEEVEEDGSRLPEGSPHPPLLPLAGEQDDYCAFPPRDDLLLFSPSLSTPNTAYGGSRAPEERSPLSLHEGLPSLASRDLMGLQRPLERMPEGDGEGLSANSSGEQASVPEGNLHGQDQDRGQGPILTLNTDAYLSLQELQAQDSVHLI
B2: SKAP1 (protein, UniProt Q3UUV5 1-355)
chain: MQAVALPEEICWLLEDTEDFLAEGLQNENLSPGAQDQRAHILRGFQQIKSRYCWDFQPQGGDLGQDGSDDNLSGTHGPPLTSEASFWSDYQDEGIEDILRGAQELDSVIKQGYLEKKSKDHSFFGSEWQKRWCVISRGLFLYYANEKSKQPKGTFLIKGYSVRMAPHLRKDSKKESCFELISQDRRSYEFTASSPAEARDWVDQISFLLKDLSSLTIPFEEEEEEEEEEEKEEEEMYNDVDGFDSPRSGSQCRAMALPEPTEKEEDIYEVLPDDDDLEEDTCGAHRRRVDYADYYQGLWDCHGDQPDELSFQRGDLIRILSKEYNMYGWWVGELNSVIGIVPKDYLTTAFEMEGI
B3: Cish, Q62225 1-257 (protein)
chain: MVLCVQGSCPLLAVEQIGRRPLWAQSLELPGPAMQPLPTGAFPEEVTEETPVQAENEPKVLDPEGDLLCIAKTFSYLRESGWYWGSITASEARQHLQKMPEGTFLVRDSTHPSYLFTLSVKTTRGPTNVRIEYADSSFRLDSNCLSRPRILAFPDVVSLVQHYVASCAADTRSDSPDPAPTPALPMSKQDAPSDSVLPIPVATAVHLKLVQPFVRRSSARSLQHLCRLVINRLVADVDCLPLPRRMADYLRQYPFQL
B4: ASB6, Q91ZU1 1-418 (protein)
chain: MPFLHGFRRIIFEYQPLVDAILGALGIQDLERQEPLDDSASSEESRILVLTELLEQKAHSPFYQEGVSNALLKMAELGLTRAAAVLLQSGANLNFEDPVTYYTALHIAVLRNQPDMVELLVRHGADINRRDRIHESSPLDLASEEPERLPCLQRLLDLGADVNAADKNGKTALLHALASSDGVQIHNTENIRLLLEGGADVKATTKDGDTVFTCIIFLLGETVCGDKEEAPMINRFCFQVTQLLLAHGADPSECPAHESLTHICLKSFKLHFPLLCFLLESGAAYNCSLHGASCWSGFNLVFERLCSHPGCAEDDSHIELLHKAETVLDLMVTSSQRLQLPENLNIHPVGSLAGKIQALHASLRQLESYPPPLKHLCRVSIRLCLRPWPVDTKVKALPLPDRLKWYLLSAHSDTQDTC

The molecules below were run against CUL5 with a C terminal HA-tag (CUL5-HA) (mouse) (UniProt Q9D5V5) (assay: affinity purification with mass spectrometry; anti-HA IP of CUL5-HA from mouse primary CD8+ T cells stimulated with anti-CD3 plus anti-CD28 for 12 h, 10 µM MG-132 for the last 8 h; Protein G dynabeads; DIA-MS; compared with cells transduced with the empty vector; triplicate). Conditions: not given.

Row | binding | Molecule
1 | binds | NEDD8 (from UniProt P29595 1-76)
2 | binds | IFITM3 (from UniProt Q9CQW9 1-137)
3 | binds | CD28 (from UniProt P31041 20-218) (receptor)
4 | binds | PCMTD2 (from UniProt Q8BHD8 1-359)
5 | no binding | CTLA4 (from UniProt P09793 36-223) (receptor)
6 | binds | B1
7 | binds | B2

Molecular target: T1, CUL5 with a C terminal HA-tag (CUL5-HA) …
Experiment: as above
Conditions: remark: other sources report otherwise

Row | binding | Molecule
8 | no binding | B3
9 | no binding | B4
